Experimental data as given in paper PMC3284570.
No constants are given. Whether binding was seen depends on the method and setting. In cells and extracts the contact can be indirect. Some entries that bind do so weakly or less than the wild type. For some of these results: Tags and fused reporters may be left off the sequences shown.

Chains of the proteins cited; added tags and fusions are not shown.
UniProt Q09472: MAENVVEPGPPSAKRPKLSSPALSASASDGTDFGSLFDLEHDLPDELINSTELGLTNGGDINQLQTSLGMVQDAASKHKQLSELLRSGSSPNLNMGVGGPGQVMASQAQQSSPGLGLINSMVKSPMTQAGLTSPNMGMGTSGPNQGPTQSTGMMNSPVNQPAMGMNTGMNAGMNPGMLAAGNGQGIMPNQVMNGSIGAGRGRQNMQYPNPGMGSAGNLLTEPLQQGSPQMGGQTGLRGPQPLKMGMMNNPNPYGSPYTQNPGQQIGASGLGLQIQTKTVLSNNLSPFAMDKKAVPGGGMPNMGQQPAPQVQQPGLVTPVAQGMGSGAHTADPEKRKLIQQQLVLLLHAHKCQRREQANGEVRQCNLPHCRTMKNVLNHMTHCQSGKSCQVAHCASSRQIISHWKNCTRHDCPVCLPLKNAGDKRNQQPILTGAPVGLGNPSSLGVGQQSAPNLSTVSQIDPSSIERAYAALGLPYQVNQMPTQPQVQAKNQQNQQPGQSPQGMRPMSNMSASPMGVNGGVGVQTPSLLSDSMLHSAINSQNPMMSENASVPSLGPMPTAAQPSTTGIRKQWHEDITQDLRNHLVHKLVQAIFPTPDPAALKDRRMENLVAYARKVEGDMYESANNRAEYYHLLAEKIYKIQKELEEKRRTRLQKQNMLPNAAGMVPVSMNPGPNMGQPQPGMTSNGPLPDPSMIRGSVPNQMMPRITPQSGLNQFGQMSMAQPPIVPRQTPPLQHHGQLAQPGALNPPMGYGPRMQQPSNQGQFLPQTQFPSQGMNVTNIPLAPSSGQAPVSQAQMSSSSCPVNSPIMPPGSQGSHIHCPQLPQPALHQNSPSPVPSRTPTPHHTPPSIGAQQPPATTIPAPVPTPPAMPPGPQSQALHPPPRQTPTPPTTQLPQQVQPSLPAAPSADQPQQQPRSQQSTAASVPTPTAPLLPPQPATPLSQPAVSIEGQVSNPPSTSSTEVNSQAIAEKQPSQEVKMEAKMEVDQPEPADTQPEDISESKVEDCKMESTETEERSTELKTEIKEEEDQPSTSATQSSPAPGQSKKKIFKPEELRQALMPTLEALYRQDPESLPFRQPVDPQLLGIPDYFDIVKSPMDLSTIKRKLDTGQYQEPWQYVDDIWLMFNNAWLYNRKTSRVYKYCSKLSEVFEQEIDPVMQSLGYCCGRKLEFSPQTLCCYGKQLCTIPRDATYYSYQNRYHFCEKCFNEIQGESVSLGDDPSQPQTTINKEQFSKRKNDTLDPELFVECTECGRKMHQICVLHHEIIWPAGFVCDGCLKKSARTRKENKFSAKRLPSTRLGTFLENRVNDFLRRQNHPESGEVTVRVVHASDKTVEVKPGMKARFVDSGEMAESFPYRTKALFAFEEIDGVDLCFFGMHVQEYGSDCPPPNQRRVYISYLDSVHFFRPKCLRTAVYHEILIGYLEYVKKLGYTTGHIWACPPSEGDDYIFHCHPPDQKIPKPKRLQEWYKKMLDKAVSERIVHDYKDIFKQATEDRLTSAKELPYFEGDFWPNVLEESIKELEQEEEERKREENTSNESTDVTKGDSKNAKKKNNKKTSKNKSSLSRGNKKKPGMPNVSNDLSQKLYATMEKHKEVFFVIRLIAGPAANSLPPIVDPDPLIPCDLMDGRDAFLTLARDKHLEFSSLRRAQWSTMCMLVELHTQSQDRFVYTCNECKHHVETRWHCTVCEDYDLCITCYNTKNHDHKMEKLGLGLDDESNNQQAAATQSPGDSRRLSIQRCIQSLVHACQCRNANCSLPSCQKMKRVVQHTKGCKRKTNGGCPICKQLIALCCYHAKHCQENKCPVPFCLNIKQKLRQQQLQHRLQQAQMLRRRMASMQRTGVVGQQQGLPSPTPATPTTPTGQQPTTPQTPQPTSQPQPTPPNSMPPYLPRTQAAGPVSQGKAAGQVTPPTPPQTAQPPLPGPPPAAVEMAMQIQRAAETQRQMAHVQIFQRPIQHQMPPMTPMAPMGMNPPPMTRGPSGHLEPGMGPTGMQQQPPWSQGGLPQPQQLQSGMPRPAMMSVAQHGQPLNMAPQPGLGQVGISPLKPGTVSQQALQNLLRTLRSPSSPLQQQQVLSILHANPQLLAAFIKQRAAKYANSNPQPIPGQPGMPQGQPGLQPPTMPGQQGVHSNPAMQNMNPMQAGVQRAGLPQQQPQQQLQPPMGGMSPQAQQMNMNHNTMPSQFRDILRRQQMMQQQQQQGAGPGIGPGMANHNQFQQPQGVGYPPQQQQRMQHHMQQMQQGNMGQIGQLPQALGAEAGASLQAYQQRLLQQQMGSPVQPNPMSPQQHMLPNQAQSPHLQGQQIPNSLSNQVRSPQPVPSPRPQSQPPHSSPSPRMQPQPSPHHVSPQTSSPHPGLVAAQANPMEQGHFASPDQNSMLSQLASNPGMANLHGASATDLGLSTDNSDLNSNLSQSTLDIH
UniProt Q92831: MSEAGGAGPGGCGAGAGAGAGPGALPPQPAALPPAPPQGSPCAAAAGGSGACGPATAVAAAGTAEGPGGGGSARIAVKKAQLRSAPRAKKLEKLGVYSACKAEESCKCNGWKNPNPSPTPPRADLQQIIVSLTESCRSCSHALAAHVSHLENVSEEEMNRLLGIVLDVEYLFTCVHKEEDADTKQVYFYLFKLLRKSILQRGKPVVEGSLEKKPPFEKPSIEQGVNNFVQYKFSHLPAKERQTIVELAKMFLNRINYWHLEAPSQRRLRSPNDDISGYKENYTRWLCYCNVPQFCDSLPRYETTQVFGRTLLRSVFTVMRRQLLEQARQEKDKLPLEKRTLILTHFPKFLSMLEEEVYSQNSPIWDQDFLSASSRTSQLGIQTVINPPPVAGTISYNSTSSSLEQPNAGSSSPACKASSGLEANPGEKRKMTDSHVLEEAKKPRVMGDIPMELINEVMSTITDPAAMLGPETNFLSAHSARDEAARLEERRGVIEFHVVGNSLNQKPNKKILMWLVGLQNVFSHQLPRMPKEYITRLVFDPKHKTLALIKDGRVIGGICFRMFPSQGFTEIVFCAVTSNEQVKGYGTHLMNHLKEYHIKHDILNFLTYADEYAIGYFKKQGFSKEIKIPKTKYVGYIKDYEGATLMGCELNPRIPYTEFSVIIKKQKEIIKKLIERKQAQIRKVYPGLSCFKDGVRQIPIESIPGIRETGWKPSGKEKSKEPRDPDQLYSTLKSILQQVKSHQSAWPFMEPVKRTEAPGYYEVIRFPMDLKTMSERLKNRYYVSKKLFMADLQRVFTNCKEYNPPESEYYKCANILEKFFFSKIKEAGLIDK

T1: Halo-tagged ZEB1 (human) (UniProt P37275)
T1 sequence: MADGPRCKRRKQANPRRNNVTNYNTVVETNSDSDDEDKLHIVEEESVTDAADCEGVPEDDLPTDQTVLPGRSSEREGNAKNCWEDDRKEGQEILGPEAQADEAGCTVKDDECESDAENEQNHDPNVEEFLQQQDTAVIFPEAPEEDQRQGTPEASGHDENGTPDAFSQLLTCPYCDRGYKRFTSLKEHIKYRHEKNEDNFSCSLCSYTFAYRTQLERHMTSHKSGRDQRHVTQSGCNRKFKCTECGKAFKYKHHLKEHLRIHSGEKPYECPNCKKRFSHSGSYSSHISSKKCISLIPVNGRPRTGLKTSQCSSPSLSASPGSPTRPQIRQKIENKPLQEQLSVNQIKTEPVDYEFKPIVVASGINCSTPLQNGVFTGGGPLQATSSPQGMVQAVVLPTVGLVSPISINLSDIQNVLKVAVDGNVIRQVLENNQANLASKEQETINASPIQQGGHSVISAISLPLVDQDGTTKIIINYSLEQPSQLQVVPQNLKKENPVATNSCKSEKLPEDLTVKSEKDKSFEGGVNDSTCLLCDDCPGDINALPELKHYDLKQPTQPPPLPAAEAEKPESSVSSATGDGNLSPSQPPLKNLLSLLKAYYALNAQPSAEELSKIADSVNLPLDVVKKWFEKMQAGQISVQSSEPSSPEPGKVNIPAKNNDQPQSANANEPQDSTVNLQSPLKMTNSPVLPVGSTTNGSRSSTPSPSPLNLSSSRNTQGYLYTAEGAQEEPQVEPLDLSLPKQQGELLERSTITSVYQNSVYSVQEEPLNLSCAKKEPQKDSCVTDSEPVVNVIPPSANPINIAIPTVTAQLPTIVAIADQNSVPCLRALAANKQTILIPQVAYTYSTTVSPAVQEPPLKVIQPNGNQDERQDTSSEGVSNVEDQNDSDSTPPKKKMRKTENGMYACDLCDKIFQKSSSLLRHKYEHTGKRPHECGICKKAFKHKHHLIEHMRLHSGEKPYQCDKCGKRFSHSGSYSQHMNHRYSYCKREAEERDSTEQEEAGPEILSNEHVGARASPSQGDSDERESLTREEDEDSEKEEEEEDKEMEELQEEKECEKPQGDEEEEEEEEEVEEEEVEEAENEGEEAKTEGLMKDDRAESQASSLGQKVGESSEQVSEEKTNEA


Legend:
Halo-tagged ZEB1 (human) = biological target: T1, Halo-tagged ZEB1 (human); assay: biotinylated oligonucleotide precipitation (DNA pull-down); HKMG lysates of co-transfected HuCCT-1 cells incubated 12 hours with 5'-biotinylated double-stranded wild type or mutated E-box/Z-box probes of the miR-200c/141 promoter and poly(dI-dC); streptavidin-agarose beads, Western blot; with or without TGF-beta1 (5 ng/mL, 24 hrs)
[1] = biological target: P300 (precipitated with a P300-specific antibody or found on the promoter probe; source not stated) (human) (UniProt Q09472); assay: co-IP; TNE lysates of transfected HuCCT-1 cells; P300 immunoprecipitated, complexes collected on protein G Dynabeads, Western blot; with or without TGF-beta1 (5 ng/mL, 24 hrs)
HA-tagged P300 (human) = HA-tagged P300 (human) (UniProt Q09472); assay: as above

Row | binding (Halo-tagged ZEB1 (human)) | binding [1] | binding (HA-tagged P300 (human)) | Molecule
1 | binds |  |  | P300 (precipitated with a P300-specific antibody or found on the promoter probe; source not stated) (from UniProt Q09472 1-2414)
2 | binds | binds |  | Flag-tagged PCAF (from UniProt Q92831 1-832)
3 |  |  | binds | ZEB1 (co-immunoprecipitated with P300; source not stated) (protein, UniProt P37275 1-1124) MADGPRCKRRKQANPRRNNVTNYNTVVETNSDSDDEDKLHIVEEESVTDAADCEGVPEDDLPTDQTVLPGRSSEREGNAKNCWEDDRKEGQEILGPEAQADEAGCTVKDDECESDAENEQNHDPNVEEFLQQQDTAVIFPEAPEEDQRQGTPEASGHDENGTPDAFSQLLTCPYCDRGYKRFTSLKEHIKYRHEKNEDNFSCSLCSYTFAYRTQLERHMTSHKSGRDQRHVTQSGCNRKFKCTECGKAFKYKHHLKEHLRIHSGEKPYECPNCKKRFSHSGSYSSHISSKKCISLIPVNGRPRTGLKTSQCSSPSLSASPGSPTRPQIRQKIENKPLQEQLSVNQIKTEPVDYEFKPIVVASGINCSTPLQNGVFTGGGPLQATSSPQGMVQAVVLPTVGLVSPISINLSDIQNVLKVAVDGNVIRQVLENNQANLASKEQETINASPIQQGGHSVISAISLPLVDQDGTTKIIINYSLEQPSQLQVVPQNLKKENPVATNSCKSEKLPEDLTVKSEKDKSFEGGVNDSTCLLCDDCPGDINALPELKHYDLKQPTQPPPLPAAEAEKPESSVSSATGDGNLSPSQPPLKNLLSLLKAYYALNAQPSAEELSKIADSVNLPLDVVKKWFEKMQAGQISVQSSEPSSPEPGKVNIPAKNNDQPQSANANEPQDSTVNLQSPLKMTNSPVLPVGSTTNGSRSSTPSPSPLNLSSSRNTQGYLYTAEGAQEEPQVEPLDLSLPKQQGELLERSTITSVYQNSVYSVQEEPLNLSCAKKEPQKDSCVTDSEPVVNVIPPSANPINIAIPTVTAQLPTIVAIADQNSVPCLRALAANKQTILIPQVAYTYSTTVSPAVQEPPLKVIQPNGNQDERQDTSSEGVSNVEDQNDSDSTPPKKKMRKTENGMYACDLCDKIFQKSSSLLRHKYEHTGKRPHECGICKKAFKHKHHLIEHMRLHSGEKPYQCDKCGKRFSHSGSYSQHMNHRYSYCKREAEERDSTEQEEAGPEILSNEHVGARASPSQGDSDERESLTREEDEDSEKEEEEEDKEMEELQEEKECEKPQGDEEEEEEEEEVEEEEVEEAENEGEEAKTEGLMKDDRAESQASSLGQKVGESSEQVSEEKTNEA
